Data published in the M2OR odorant receptor database.
This is a selection; strong and weak results do not stand in their true shares. The calls were merged from several studies; some rest on single wells.

Columns and labels:
Details in all cases: stereoisomer not certain
[1] = molecular target: T1, OR13C2 (Homo sapiens) (UniProt Q8NGS9)
T1 sequence (whole entry): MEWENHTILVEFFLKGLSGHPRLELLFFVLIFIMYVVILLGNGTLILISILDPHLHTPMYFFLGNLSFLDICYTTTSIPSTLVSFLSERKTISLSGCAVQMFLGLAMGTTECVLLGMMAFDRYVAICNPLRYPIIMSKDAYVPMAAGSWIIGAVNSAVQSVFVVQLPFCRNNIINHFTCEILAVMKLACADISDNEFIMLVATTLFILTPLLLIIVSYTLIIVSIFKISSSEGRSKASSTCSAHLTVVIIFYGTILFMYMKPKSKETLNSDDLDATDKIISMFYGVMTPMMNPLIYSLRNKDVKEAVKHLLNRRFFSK
How it was run: (§1)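 Assay methods differ from source to source, frequently being transient luciferase assays in mammalian cell lines. For each receptor–molecule pair, the label responsive (active) applies when the original authors judged the measured signal statistically different from baseline, and non-responsive (inactive) applies otherwise.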

[2] = molecular target: T2, OR13C3 (Homo sapiens) (UniProt Q8NGS6)
T2 sequence (whole entry): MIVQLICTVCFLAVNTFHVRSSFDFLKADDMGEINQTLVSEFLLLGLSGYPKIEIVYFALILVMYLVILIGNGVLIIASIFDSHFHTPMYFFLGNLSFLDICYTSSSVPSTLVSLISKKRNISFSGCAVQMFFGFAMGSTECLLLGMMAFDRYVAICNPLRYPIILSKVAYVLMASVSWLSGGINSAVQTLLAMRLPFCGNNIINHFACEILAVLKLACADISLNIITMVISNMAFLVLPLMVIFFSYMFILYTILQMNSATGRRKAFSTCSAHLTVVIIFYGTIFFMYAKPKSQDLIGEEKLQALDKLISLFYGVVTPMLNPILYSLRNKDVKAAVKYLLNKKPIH
How it was run: as §1

[3] = molecular target: T3, OR13C4 (Homo sapiens) (UniProt Q8NGS5)
T3 sequence (whole entry): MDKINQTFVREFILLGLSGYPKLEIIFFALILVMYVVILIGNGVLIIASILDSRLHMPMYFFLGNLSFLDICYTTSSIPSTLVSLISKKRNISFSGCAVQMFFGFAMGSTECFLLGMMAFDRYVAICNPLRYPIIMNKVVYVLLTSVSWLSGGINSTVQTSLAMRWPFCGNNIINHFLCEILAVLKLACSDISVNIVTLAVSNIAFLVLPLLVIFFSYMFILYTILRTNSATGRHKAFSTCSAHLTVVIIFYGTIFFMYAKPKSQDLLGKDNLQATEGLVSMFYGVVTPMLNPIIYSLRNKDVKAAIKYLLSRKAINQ
How it was run: as §1

[4] = molecular target: T4, OR13C8 (Homo sapiens) (UniProt Q8NGS7)
T4 sequence (whole entry): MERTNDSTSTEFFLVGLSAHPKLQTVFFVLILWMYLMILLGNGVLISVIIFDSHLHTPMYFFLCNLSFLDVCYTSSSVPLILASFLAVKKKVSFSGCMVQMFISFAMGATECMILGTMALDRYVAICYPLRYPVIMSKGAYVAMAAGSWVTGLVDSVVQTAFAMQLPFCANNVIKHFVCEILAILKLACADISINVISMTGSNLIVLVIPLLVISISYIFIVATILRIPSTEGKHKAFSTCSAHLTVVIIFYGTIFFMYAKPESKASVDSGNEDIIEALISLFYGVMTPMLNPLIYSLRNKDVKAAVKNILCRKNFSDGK
How it was run: as §1

[5] = molecular target: T5, OR13H1 (Homo sapiens) (UniProt Q8NG92)
T5 sequence (whole entry): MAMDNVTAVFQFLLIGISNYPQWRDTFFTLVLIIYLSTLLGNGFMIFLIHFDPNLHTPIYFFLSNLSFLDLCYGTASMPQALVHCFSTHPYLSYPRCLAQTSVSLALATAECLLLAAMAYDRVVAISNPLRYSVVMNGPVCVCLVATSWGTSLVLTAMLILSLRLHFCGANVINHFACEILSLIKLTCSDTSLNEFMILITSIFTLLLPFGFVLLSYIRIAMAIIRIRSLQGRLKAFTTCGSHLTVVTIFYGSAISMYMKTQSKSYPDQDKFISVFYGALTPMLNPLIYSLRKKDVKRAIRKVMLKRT
How it was run: as §1

Measured: odorant receptor agonist call

CC(=O)OCC=C(C)CCC=C(C)C
active: [1]
inactive: all other assays above

COC(=O)c1ccccc1
not listed: [1]
inactive: all other assays above

CC=Cc1ccc(O)c(OC)c1
active: [1] | [4]
inactive: all other assays above

CC(=O)C(C)=O
inactive: all assays above

C=CCSCC=C
inactive: all assays above

O=C1CCCCCCCCCCCCCCO1
inactive: all assays above
